Among the data in PMC10000615 are binding values, retold here.

Chains of the proteins cited; added tags and fusions are not shown. Lines headed by an entry give the natural chain unless they say otherwise; changes in a name come on top.
UniProt Q8T9L5: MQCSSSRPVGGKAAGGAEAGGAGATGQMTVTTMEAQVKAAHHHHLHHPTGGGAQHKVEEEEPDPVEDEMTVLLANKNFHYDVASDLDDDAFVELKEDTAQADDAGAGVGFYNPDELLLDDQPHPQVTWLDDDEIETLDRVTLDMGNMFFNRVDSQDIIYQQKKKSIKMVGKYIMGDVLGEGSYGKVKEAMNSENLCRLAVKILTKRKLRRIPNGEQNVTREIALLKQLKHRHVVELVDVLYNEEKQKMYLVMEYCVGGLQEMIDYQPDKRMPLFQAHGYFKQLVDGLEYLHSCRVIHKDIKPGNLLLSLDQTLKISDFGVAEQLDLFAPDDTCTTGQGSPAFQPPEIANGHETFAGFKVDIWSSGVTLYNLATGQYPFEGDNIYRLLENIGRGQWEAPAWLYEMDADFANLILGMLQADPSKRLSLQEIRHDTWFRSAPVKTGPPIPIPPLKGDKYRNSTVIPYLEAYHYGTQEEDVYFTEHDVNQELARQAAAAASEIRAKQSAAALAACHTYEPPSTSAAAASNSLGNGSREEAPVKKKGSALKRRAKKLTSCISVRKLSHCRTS

These are yes or no findings as the source states them, for the method shown. Binding seen in cells or lysates may run through a third protein. Binding calls can cover weak binding; strength is not graded here. Sequences can lack the tags named with a protein.

Test [1] has as its target wild type GFP-LKB1 (Drosophila LKB1) (Drosophila melanogaster) (UniProt Q8T9L5). Nature of the test: co-IP; S2R+ cells cotransfected with GFP-LKB1 variants and tagged partner(s); lysed three days after transfection; GFP-LKB1 immunoprecipitated with GFP-binder (Chromotek); partners detected by immunoblotting. Background: In western blotting, separated proteins are transferred to a membrane and probed.

Test [2] deals with GFP-LKB1 T353A (Drosophila melanogaster). The test is described as above.

B1: PDK1-HA (Phosphoinositide-dependent kinase 1) (enzyme, UniProt Q9W0V1 1-836)
chain: MKCKSWSNKINNYVVRKIKSIKINGTQQQLQLPGSGASGIAAAAVITVASDCGENCSSNGTEHQQHFNIATTTATSATEATMPAMAKEKASATVSLGESNFRDINLKDLAVVVEAASRLHHQQNVCGCGAVSSTENNNNSRYGSSKYLTNGHTSPLAAAVASNSSSVATTPHCRMLHNCSLQQYQNDIRQQTEILDMLRQQHQQGYQSQQQQQQPQQQQEQQQQQEQSQQQQQLQNPAPRRSPNDFIFGRYIGEGSYSIVYLAVDIHSRREYAIKVCEKRLILRERKQDYIKREREVMHQMTNVPGFVNLSCTFQDQRSLYFVMTYARKGDMLPYINRVGSFDVACTRHYAAELLLACEHMHRRNVVHRDLKPENILLDEDMHTLIADFGSAKVMTAHERALATEHCSEQRRSNSDEDDEDSDRLENEDEDFYDRDSEELDDGDDEQQQEEMDSPRHRQRRYNRHRKASFVGTAQYVSPEVLQNGPITPAADLWALGCIVYQMIAGLPPFRGSNDYVIFKEILDCAVDFPQGFDKDAEDLVRKLLRVDPRDRLGAQDEFGYYESIRAHPFFAGIDWQTLRQQTPPPIYPYLPGVSQDEDFRSSYTVPGDLEPGLDERQISRLLSAELGVGSSVAMPVKRSTAKNSFDLNDAEKLQRLEQQKTDKWHVFADGEVILKKGFVNKRKGLFARKRMLLLTTGPRLIYIDPVQMIKKGEIPWSPDLRAEYKNFKIFFVHTPNRTYYLDDPEGYAIHWSEAIENMRKLAYGDPSSTSAVSCSSGSSNSLAVISNSSAASSSNSPTVKRSSPVNAPQASTASDNRTLGSTRTGTSPSKKTASK
Consider B1, for which the binding entry in test [1] is “binds”.

B2: Myc-PDK1 (Phosphoinositide-dependent kinase 1) (enzyme, UniProt Q9W0V1 1-836)
chain: MKCKSWSNKINNYVVRKIKSIKINGTQQQLQLPGSGASGIAAAAVITVASDCGENCSSNGTEHQQHFNIATTTATSATEATMPAMAKEKASATVSLGESNFRDINLKDLAVVVEAASRLHHQQNVCGCGAVSSTENNNNSRYGSSKYLTNGHTSPLAAAVASNSSSVATTPHCRMLHNCSLQQYQNDIRQQTEILDMLRQQHQQGYQSQQQQQQPQQQQEQQQQQEQSQQQQQLQNPAPRRSPNDFIFGRYIGEGSYSIVYLAVDIHSRREYAIKVCEKRLILRERKQDYIKREREVMHQMTNVPGFVNLSCTFQDQRSLYFVMTYARKGDMLPYINRVGSFDVACTRHYAAELLLACEHMHRRNVVHRDLKPENILLDEDMHTLIADFGSAKVMTAHERALATEHCSEQRRSNSDEDDEDSDRLENEDEDFYDRDSEELDDGDDEQQQEEMDSPRHRQRRYNRHRKASFVGTAQYVSPEVLQNGPITPAADLWALGCIVYQMIAGLPPFRGSNDYVIFKEILDCAVDFPQGFDKDAEDLVRKLLRVDPRDRLGAQDEFGYYESIRAHPFFAGIDWQTLRQQTPPPIYPYLPGVSQDEDFRSSYTVPGDLEPGLDERQISRLLSAELGVGSSVAMPVKRSTAKNSFDLNDAEKLQRLEQQKTDKWHVFADGEVILKKGFVNKRKGLFARKRMLLLTTGPRLIYIDPVQMIKKGEIPWSPDLRAEYKNFKIFFVHTPNRTYYLDDPEGYAIHWSEAIENMRKLAYGDPSSTSAVSCSSGSSNSLAVISNSSAASSSNSPTVKRSSPVNAPQASTASDNRTLGSTRTGTSPSKKTASK
In the case of B2, the binding entry in test [1] and in test [2] was “binds” in each case.
